Compound in the experiment: CN[C@@H]1C[C@H]2O[C@@](C)([C@@H]1OC)n1c3ccccc3c3c4c(c5c6ccccc6n2c5c31)C(=O)NC4 [staurosporine]
The experiment can be described thus: log2 fold change of pooled soluble protein (PISA), ligand vs vehicle (log2 ratio); higher = more thermally stabilized. The conditions noted are these: ligand concentration: 20 uM; assay format: PISA pool 52.9/55.5/58.6 C.

Protein sequences, listed by entry. Tags and fused reporters are not part of them. Lines headed by an entry give the natural chain unless they say otherwise; changes in a name come on top.
UniProt Q9QZE5: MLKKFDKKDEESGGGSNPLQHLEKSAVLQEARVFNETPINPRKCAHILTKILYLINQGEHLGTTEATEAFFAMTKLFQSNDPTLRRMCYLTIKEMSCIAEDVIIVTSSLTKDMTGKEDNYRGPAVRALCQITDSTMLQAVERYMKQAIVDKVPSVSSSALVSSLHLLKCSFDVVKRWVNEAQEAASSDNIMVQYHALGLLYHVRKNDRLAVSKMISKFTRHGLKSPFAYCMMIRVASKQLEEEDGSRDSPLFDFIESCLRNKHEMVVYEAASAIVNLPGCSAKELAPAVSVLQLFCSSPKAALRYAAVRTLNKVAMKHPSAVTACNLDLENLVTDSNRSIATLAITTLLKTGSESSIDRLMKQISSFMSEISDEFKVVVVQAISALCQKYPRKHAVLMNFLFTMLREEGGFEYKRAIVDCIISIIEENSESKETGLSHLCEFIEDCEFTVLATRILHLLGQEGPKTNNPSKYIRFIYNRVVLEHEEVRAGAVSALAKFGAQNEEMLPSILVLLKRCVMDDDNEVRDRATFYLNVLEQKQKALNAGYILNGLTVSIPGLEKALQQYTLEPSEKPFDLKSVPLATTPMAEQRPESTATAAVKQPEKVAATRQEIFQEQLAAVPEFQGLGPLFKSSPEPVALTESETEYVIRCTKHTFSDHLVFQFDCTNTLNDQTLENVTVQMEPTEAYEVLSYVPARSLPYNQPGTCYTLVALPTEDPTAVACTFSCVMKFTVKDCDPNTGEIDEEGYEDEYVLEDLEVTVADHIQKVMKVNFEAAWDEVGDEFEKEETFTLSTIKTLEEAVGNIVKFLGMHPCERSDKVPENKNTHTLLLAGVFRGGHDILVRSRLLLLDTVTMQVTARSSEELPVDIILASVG
UniProt Q9R0L6: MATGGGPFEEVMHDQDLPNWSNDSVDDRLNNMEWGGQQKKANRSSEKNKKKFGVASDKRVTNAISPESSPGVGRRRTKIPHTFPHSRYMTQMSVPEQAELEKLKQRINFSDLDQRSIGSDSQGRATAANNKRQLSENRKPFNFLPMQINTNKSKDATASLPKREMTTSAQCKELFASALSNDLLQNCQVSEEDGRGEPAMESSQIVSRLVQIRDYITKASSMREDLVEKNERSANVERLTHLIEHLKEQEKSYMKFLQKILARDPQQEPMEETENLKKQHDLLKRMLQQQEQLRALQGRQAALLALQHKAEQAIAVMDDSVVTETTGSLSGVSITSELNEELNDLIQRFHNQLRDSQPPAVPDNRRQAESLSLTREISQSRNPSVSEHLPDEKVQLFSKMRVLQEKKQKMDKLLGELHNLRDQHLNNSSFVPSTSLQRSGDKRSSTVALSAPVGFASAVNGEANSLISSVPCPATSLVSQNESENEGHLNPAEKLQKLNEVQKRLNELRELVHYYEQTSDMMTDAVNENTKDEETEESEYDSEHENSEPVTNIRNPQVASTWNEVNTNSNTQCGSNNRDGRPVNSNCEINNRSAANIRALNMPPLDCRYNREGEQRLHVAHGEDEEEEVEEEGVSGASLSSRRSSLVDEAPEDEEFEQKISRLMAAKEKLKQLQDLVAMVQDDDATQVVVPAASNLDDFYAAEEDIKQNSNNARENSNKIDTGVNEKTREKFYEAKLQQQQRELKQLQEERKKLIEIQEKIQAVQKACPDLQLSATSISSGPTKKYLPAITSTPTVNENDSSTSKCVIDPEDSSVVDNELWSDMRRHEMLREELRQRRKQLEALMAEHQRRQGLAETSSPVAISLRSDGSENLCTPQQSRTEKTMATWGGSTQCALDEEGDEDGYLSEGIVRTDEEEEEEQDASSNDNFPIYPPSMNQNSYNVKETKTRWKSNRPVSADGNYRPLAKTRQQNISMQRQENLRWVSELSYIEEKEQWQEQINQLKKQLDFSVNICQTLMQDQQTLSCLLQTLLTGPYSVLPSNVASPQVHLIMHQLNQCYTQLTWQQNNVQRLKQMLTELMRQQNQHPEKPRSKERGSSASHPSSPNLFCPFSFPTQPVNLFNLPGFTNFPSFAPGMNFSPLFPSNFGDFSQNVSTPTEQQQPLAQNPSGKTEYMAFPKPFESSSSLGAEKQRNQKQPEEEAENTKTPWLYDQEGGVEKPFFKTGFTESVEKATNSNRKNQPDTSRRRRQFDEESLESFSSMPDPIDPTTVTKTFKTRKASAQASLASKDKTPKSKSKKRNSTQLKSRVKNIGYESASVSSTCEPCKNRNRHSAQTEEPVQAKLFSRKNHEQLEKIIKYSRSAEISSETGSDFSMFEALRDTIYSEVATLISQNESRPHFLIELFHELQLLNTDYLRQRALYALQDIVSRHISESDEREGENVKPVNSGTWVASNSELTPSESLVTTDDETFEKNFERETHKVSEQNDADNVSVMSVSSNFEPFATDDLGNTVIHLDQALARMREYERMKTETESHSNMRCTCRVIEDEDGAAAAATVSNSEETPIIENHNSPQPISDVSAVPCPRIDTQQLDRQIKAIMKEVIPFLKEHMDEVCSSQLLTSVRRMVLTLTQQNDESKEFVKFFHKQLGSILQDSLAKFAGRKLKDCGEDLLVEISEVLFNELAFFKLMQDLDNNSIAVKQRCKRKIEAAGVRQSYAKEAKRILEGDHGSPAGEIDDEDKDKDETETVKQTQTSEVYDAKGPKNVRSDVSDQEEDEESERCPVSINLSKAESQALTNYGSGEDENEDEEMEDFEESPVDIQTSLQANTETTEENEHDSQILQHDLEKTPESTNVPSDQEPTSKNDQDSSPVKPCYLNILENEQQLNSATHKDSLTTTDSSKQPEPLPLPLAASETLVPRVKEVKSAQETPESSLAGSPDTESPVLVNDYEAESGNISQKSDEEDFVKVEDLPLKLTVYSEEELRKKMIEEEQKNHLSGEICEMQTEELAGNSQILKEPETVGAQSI
UniProt Q9Z0R6: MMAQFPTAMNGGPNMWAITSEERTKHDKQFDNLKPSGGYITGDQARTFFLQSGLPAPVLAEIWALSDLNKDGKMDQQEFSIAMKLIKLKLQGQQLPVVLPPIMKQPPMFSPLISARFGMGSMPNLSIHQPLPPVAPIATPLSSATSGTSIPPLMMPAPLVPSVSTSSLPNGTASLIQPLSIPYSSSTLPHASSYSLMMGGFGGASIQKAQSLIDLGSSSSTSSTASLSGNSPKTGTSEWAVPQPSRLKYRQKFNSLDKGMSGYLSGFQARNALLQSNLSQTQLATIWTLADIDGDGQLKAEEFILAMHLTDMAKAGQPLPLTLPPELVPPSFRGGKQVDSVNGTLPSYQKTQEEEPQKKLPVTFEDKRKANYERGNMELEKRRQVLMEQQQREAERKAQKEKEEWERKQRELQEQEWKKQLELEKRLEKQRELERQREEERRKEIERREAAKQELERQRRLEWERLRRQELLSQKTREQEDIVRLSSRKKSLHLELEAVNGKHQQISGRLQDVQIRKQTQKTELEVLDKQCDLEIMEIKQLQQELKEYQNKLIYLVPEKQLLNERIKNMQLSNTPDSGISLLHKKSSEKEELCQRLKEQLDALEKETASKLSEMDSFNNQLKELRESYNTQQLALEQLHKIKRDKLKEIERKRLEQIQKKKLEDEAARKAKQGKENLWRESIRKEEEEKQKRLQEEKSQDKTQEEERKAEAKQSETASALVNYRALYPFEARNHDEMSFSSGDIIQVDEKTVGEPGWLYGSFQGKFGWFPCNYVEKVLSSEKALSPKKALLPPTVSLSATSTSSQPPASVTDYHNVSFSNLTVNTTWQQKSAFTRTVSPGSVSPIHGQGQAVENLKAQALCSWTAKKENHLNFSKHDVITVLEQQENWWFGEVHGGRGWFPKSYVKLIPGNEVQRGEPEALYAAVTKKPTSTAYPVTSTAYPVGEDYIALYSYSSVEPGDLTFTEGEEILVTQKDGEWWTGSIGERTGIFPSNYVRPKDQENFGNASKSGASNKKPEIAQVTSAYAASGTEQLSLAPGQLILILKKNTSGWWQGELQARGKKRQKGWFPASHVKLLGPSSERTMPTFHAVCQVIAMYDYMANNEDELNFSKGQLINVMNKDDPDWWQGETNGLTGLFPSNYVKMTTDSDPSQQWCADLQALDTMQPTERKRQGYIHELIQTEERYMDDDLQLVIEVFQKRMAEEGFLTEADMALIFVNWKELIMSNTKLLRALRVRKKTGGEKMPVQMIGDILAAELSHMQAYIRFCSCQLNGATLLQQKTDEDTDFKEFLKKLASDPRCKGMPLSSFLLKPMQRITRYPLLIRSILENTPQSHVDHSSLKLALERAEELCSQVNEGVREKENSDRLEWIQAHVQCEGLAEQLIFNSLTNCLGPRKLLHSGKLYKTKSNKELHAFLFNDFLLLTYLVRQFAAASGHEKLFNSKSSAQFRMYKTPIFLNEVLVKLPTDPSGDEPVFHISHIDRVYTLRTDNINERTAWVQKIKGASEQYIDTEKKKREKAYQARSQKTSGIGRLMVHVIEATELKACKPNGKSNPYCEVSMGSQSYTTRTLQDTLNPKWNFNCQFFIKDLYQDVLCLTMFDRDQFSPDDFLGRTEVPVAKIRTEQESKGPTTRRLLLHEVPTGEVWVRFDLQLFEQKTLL
UniProt Q9WVB0, whole entry, looked up: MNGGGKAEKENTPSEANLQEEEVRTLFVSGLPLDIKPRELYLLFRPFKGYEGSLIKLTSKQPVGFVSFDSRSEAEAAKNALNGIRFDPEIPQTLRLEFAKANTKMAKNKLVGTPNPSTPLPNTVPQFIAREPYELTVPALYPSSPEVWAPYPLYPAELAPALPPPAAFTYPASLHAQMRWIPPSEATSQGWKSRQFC
UniProt Q9WUK2: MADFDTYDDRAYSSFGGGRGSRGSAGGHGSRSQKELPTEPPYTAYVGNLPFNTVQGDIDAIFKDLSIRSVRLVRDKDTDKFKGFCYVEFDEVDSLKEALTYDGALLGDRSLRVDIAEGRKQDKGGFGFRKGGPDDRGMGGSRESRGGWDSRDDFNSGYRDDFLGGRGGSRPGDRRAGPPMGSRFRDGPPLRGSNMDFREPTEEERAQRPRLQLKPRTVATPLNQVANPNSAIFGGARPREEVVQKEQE
UniProt Q9QZW0: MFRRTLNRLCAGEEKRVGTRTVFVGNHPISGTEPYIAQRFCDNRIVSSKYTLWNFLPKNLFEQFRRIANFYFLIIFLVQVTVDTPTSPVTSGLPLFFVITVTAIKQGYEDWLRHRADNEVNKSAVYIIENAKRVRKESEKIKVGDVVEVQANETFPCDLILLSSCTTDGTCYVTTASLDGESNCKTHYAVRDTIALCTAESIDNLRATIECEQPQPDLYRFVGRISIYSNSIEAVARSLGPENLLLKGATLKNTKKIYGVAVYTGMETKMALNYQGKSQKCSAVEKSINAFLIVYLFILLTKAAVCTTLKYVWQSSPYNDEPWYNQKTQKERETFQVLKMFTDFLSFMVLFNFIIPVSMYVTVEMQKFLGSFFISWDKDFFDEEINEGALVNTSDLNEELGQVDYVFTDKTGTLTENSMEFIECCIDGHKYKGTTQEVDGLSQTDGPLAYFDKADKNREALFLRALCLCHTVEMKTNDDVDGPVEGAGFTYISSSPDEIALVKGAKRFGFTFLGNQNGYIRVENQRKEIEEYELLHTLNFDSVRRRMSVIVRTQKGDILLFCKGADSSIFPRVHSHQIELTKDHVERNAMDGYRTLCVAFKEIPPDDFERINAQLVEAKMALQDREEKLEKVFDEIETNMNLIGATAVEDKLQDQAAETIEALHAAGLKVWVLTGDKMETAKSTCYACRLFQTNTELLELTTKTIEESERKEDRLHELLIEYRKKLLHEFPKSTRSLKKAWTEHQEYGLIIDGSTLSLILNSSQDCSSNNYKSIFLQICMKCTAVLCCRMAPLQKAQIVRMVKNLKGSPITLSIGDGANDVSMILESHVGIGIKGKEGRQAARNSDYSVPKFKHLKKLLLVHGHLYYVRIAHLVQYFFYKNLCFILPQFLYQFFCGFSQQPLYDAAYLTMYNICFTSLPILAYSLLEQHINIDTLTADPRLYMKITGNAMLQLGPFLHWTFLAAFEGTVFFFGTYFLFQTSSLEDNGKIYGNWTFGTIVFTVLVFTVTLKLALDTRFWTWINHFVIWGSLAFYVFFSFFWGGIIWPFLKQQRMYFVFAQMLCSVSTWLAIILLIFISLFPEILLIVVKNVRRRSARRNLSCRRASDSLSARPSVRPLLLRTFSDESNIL
UniProt Q9R112: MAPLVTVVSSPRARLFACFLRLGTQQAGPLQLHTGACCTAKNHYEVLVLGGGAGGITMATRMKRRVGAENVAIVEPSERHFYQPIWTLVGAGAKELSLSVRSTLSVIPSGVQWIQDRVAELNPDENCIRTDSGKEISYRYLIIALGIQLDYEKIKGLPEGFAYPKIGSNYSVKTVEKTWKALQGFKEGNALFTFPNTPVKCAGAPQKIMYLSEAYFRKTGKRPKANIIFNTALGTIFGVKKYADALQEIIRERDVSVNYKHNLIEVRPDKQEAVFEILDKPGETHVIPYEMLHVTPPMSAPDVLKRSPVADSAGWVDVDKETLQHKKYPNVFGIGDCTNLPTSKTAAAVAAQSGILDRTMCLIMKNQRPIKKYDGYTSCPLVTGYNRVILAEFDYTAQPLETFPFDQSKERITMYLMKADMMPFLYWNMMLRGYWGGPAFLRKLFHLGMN

This is one part of the list. Most entries show no effect beyond the scatter of the controls.

The results in this text go back to the supplement of paper PMC12819154, “High-throughput peptide-centric local stability assay extends protein–ligand identification to membrane proteins, tissues and bacteria” (Nature Structural & Molecular Biology, 2025).

On to UniProt Q9QYR6, for which the “log2 fold change of pooled soluble protein” value (“log2 fold change” below) is -0.209. Regarding UniProt Q9Z131, the “log2 fold change” value was 0.00055. UniProt Q9QZE5: the “log2 fold change” value amounted to 0.108. For the target UniProt Q9Z2I9, the “log2 fold change” value was -0.113. Consider UniProt Q9Z1Q5, for which the “log2 fold change” value was -0.0671.

Consider UniProt Q9R0L6, for which the “log2 fold change” value was 0.329.

As to UniProt Q9Z0F7, the “log2 fold change” value is -0.00888. With UniProt Q9Z0S1, the “log2 fold change” value was -0.0527. The result for UniProt Q9WUM4 reads 0.0632; that for UniProt Q9WUM5, -0.105; that for UniProt Q9R233, 0.0188. The result for UniProt Q9WUQ2 reads -0.23; that for UniProt Q9Z0R6, -0.148. As to UniProt Q9R0Q9, the “log2 fold change” value came out at 0.242. In the case of UniProt Q9Z2C5, the “log2 fold change” value was -0.0237. In the case of UniProt Q9Z2Z6, the “log2 fold change” value is -0.0547. Take UniProt Q9Z1N5: the “log2 fold change” value was determined as 0.105. As for UniProt Q9Z1Z0, the “log2 fold change” value was -0.014.

UniProt Q9WVJ2: the “log2 fold change” value amounted to 0.0478. Regarding UniProt Q9Z210, the “log2 fold change” value was -0.0659. On to UniProt Q9WVJ3, for which the “log2 fold change” value was -0.131.

With UniProt Q9WUB3, the “log2 fold change” value was -0.174. Regarding UniProt Q9WVB0, the “log2 fold change” value is -0.18. Turning to UniProt Q9Z0P4, the “log2 fold change” value was found to be 0.15. For the target UniProt Q9R0N0, the “log2 fold change” value was found to be 0.0198. The result for UniProt Q9WUK2 reads -0.126; that for UniProt Q9Z2W0, -0.0471; that for UniProt Q9Z1Q2, 0.0832. UniProt Q9R0P6: the “log2 fold change” value was -0.0473. The result for UniProt Q9Z1S0 reads 0.124. For the target UniProt Q9WU42, the “log2 fold change” value was -0.00633. For the target UniProt Q9QZW0, the “log2 fold change” value is 0.00907. For the target UniProt Q9Z0S9, the “log2 fold change” value is -0.0653.

On to UniProt Q9WTP6, for which the “log2 fold change” value was -0.145.

In the case of UniProt Q9QZN4, the “log2 fold change” value is -0.0839. The result for UniProt Q9Z0E8 reads -0.14; that for UniProt Q9R112, -0.0484; that for UniProt Q9Z0E6, 0.144.

For the target UniProt Q9R059, the “log2 fold change” value is 0.0648.
